According to PMC7154662, “Structural Insight into IAPP‐Derived Amyloid Inhibitors and Their Mechanism of Action” (Angewandte Chemie (International Ed. in English), 2020):

Test system: Aβ40
Assay: MAS solid-state NMR of ISM-induced Aβ40 aggregates
Type: biochemical

Substance: KKK-ATQRLANFLVH-LLL-NF(N-Me)GA(N-Me)ILS-KKK [K3-L3-K3-GI]
- Asp-23/Lys-28 salt bridge in ISM-induced Aβ40 aggregates (2D 13C,15N TEDOR): a salt bridge is formed
- β-sheet core of ISM-induced Aβ40 aggregates (13C chemical shifts, TALOS+): same residues as in an Aβ amyloid fibril are immobilized and involved in the β‐sheet core
